Measurements reported in PubChem BioAssay AID1224830 (NIAID, 2016)

Purpose: 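Host factors that control LPS-induced TNF expression in human macrophages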 (primary screen)
Cells: human THP-1 monocytic leukaemia cells, TNF dual-luciferase reporter clone, PMA-differentiated to macrophage-like cells
Knock-down reagent: siRNA pool against human genes, 50 nM
Duration: LPS for 4 h, given about 3 days after siRNA transfection
Conditions: bacterial LPS (TLR4 ligand), 10 ng/ml
Detection: 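TNF firefly reporter luminescence divided by renilla, normalised to the plate median, then turned into a robust z-score for each replicate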
Direction: TNF reporter robust z-score: higher = stronger TNF reporter response to LPS
Hit rule: 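a well is active when its z-score exceeds 2.8 or falls below -1.5; control wells carry no call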
Shown is one part, drawn at random, of about 18,000 reagents tested. About 2,900 of all reagents (16%) were called active. 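Calls are made per well; low scores hint the gene aids the LPS response, high scores that it dampens it.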 A number with no mark means an inactive call. Repeated entries: four replicate wells of each siRNA pool. No sequences are given here.

Against CEBPE, the values are TNF reporter robust z-score -0.72. Against CEBPE the deposit lists TNF reporter robust z-score -0.41. Silencing of CEBPE resulted in: TNF reporter robust z-score -0.34. CEBPE gave TNF reporter robust z-score -0.33. PROKR2 gave TNF reporter robust z-score -0.54. After knock-down of PROKR2, the record shows TNF reporter robust z-score 0.07.

Against PROKR2 the deposit lists TNF reporter robust z-score 1.39. Silencing of PROKR2 resulted in: TNF reporter robust z-score 0.45. For C1orf226 the deposit lists TNF reporter robust z-score 2.78. Against C1orf226, the entry reads TNF reporter robust z-score 3.96 (active). After knock-down of C1orf226 the results were TNF reporter robust z-score 2.46. C1orf226 scored TNF reporter robust z-score 3.07 (active).

Called active, of those listed so far:
C1orf226: TNF reporter robust z-score = 3.96 (active)
C1orf226: TNF reporter robust z-score = 3.07 (active)

Continued.
With knock-down of ITGB7, the record shows TNF reporter robust z-score 0.23. With knock-down of ITGB7, the screen gave TNF reporter robust z-score -0.41. For ITGB7, the entry reads TNF reporter robust z-score -0.66. With knock-down of ITGB7, the screen gave TNF reporter robust z-score -0.21. BHLHE40 scored TNF reporter robust z-score -1.12. With knock-down of BHLHE40, the record shows TNF reporter robust z-score -0.92.

With knock-down of BHLHE40, the record shows TNF reporter robust z-score -1.08. BHLHE40 gave TNF reporter robust z-score -0.83.
